These are yes or no findings as the source states them, for the method shown. In cells and extracts the contact can be indirect. Some results given as binding are weak or reduced against the parent protein; the word gives no strength. For some of these results: Where a sequence is shown, tags or fusion partners need not be part of it.
Legend:
FLAG-MISP [1] = biological target: T1, FLAG-MISP (UniProt Q8IVT2); test: co-IP; overexpressed GFP-IQGAP1 and FLAG-MISP in asynchronous HEK293T cell lysates; from both sides (GFP trap or FLAG M2 beads)
T1 sequence: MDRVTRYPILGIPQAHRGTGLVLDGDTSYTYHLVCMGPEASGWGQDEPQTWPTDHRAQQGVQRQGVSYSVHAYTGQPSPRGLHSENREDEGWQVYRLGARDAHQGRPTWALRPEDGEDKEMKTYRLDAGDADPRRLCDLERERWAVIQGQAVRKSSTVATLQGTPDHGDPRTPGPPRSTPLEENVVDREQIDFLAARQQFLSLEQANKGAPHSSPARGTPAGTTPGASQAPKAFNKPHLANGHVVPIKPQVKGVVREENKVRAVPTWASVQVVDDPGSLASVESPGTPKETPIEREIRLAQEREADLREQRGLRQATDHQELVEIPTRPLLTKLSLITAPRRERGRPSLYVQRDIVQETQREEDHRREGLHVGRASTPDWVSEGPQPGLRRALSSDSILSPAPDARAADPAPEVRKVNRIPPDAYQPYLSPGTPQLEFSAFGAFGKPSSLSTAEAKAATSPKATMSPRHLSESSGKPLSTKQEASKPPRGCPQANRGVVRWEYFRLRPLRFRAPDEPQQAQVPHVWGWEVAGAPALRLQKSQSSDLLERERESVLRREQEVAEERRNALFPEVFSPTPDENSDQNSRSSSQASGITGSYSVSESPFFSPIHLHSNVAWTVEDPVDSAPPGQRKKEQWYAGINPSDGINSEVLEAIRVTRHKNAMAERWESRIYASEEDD

Chains of the proteins cited; added tags and fusions are not shown. Lines headed by an entry give the natural chain unless they say otherwise; changes in a name come on top.
UniProt P60953: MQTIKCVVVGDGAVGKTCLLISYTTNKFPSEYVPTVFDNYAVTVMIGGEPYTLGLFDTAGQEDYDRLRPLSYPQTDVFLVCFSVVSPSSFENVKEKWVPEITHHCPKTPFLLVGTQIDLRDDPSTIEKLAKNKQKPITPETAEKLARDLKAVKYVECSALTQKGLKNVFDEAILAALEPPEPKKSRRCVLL
UniProt P46940: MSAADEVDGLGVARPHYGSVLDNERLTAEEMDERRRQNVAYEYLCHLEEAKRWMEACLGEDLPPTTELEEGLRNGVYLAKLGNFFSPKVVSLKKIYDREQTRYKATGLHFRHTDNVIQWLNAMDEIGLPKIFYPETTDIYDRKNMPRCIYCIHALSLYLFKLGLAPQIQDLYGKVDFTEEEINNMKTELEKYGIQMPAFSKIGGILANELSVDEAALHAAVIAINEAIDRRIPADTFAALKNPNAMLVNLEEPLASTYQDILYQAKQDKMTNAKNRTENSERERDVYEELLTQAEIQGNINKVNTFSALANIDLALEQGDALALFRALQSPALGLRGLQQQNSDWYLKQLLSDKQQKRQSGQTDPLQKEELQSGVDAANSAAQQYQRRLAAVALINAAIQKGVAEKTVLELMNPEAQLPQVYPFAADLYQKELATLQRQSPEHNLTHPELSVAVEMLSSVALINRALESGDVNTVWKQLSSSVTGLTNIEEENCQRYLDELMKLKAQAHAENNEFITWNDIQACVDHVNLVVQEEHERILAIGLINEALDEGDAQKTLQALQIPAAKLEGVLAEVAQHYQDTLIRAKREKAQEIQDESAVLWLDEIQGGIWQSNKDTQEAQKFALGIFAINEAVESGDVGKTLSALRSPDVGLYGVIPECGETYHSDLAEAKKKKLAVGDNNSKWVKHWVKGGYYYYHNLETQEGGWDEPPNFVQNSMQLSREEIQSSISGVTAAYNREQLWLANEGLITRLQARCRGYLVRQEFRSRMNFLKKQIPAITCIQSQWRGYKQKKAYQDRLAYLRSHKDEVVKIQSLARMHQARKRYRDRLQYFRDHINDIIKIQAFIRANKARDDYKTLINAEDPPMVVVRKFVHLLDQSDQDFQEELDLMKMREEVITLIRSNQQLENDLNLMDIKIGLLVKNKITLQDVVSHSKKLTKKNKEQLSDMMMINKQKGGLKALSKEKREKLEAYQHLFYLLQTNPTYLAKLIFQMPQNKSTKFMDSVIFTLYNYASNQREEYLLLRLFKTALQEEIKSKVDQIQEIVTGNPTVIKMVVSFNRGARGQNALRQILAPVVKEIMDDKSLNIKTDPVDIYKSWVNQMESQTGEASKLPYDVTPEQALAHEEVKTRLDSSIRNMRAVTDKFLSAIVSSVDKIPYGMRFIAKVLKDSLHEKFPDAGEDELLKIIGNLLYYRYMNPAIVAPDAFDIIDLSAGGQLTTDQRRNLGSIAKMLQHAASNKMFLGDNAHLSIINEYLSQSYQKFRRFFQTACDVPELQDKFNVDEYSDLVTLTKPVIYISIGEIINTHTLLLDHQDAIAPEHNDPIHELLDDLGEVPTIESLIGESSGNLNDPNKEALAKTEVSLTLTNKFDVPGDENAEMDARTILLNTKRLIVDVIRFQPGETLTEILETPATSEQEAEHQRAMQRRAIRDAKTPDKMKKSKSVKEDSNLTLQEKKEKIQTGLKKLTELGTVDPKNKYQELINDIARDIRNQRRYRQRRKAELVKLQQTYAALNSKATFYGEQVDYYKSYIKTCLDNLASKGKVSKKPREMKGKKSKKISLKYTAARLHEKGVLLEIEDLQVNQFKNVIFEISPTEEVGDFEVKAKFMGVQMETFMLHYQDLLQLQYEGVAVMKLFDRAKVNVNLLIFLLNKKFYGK

GFP-MISP = biological target: T2, GFP-MISP (UniProt Q8IVT2); test: co-IP; GFP-MISP and endogenous IQGAP1 in lysates of taxol-arrested (mitotic) HeLa cells
T2 sequence: T1 sequence

[2] = biological target: GFP-Cdc42CA, constitutively active form of Cdc42 (Q61L) (UniProt P60953); test: co-IP; sequential IP from HEK293T lysates: FLAG M2 beads, elution with 3xFLAG peptide, then GFP trap beads 2 h at 4 °C; IQGAP1 detected by Western blot
FLAG-MISP [3] = biological target: T1, FLAG-MISP; test: as above

| Substance | binding (FLAG-MISP [1]) | binding (GFP-MISP) | binding [2] | binding (FLAG-MISP [3]) |
| --- | --- | --- | --- | --- |
| GFP-IQGAP1 (from UniProt P46940 1-1657) | binds |  |  |  |
| endogenous IQGAP1 (from UniProt P46940 1-1657) |  | binds | binds | binds |

— paper PMC5910412
